Literature values, collected in patent US20040219189A1 (priority 2001, published 2004).

Test system: kainate receptors
Details: Narita et al. 1993; cited from earlier work

For `NCCCC(=O)O` [GABA, γ-aminobutyric acid], the “inhibition of kainate-induced running activity in rat” value is listed as “not inhibited”.
